No constants are given. Whether binding was seen depends on the method and setting. Binding seen in cells or lysates may run through a third protein. Some binding calls cover weakened binding; strength is not graded here.

Amino acid sequences for entries named in this document (tags omitted). Residues count along the entry.
UniProt Q96EB6: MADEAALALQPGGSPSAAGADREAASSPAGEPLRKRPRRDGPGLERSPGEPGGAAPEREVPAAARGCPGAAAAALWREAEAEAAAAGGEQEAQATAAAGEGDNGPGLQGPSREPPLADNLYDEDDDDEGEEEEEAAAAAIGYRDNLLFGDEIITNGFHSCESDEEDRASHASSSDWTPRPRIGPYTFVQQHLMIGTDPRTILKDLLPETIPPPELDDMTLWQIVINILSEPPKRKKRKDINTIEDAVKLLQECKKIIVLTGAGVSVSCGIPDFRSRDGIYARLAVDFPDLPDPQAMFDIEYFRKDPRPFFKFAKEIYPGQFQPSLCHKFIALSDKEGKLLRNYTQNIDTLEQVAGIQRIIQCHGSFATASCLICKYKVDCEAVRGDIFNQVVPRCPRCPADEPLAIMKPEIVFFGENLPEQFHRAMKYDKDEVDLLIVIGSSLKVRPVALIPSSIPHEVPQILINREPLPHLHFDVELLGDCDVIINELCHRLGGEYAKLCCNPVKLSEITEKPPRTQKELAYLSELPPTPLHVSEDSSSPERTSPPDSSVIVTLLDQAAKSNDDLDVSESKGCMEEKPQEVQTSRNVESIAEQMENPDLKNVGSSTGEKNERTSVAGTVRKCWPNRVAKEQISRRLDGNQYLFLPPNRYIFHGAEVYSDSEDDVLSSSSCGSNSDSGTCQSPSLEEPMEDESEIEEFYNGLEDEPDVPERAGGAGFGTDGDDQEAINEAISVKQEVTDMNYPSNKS
UniProt Q8VDP4: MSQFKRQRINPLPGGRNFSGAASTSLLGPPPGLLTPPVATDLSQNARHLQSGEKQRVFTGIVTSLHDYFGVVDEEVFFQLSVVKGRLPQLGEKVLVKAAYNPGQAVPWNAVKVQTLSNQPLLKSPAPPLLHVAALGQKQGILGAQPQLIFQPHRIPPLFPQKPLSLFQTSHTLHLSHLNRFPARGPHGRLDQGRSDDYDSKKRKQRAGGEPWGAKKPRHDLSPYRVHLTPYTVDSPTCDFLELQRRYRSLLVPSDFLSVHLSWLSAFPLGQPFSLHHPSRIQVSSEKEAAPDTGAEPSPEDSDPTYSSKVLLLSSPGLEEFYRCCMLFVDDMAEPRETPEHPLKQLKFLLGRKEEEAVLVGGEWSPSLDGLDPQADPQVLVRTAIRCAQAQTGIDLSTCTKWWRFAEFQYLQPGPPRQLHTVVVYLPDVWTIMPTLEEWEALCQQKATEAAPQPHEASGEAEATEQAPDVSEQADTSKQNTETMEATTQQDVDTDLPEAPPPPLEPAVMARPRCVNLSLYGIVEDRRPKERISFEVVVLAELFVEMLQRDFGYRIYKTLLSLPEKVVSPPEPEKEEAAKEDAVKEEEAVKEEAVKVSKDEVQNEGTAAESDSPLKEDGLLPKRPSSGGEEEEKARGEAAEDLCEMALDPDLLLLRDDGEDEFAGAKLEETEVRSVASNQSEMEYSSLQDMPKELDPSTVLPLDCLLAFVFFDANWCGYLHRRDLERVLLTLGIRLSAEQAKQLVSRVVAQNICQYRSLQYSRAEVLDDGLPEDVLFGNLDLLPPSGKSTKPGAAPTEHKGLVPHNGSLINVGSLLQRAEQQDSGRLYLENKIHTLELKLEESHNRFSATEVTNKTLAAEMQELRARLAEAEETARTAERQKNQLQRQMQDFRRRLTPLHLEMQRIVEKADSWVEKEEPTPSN
UniProt Q8N163, residues 139-923: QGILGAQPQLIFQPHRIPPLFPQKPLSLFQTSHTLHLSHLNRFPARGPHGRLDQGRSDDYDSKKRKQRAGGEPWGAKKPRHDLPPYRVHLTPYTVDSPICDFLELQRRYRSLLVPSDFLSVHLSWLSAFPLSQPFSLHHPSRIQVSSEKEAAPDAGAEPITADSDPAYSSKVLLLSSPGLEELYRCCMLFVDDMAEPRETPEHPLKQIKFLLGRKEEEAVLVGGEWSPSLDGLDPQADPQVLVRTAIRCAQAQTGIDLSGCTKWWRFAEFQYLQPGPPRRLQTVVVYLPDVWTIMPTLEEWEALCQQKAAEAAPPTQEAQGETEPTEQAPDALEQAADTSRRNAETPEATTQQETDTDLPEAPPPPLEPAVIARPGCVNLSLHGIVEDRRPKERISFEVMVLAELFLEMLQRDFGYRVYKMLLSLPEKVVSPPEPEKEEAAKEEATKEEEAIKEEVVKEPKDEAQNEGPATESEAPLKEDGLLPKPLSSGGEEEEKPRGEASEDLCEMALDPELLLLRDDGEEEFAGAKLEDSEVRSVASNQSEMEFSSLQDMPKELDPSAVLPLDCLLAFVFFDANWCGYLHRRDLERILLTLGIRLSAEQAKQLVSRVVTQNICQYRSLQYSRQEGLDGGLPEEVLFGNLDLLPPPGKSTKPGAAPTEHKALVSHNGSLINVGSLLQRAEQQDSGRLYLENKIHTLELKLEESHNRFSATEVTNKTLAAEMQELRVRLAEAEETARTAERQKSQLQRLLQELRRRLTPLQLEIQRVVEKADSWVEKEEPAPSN

In assay [1] the target is Flag-tagged recombinant SIRT1 (UniProt Q96EB6). Kind of assay: pull-down; recombinant Flag-SIRT1 purified from 293 T cells incubated with mouse liver lysates mainly expressing DBC1 (FL) or DN-DBC1 (DN); precipitated with Flag antibody; only the target purified.
Assay [2] has as its target endogenous SIRT1 of 293 T cells (human (endogenous in 293 T)) (UniProt Q96EB6). Kind of assay: co-IP; Flag-tagged FL and DN-DBC1 overexpressed in 293 T cells; binding to endogenous SIRT1; non-transfected cells as controls.

Take “endogenous DBC1 (full length) of mouse liver (from UniProt Q8VDP4 1-922)”: the binding result in assay [1] is on record as “binds”. Regarding “Flag-tagged recombinant DN-DBC1 lacking the first 138 residues (from UniProt Q8N163 139-923) (domain or fragment)”, the binding result in assay [2] is “no binding”.

Source of the values: article PMC6779753.
